Some of the results follow. Further columns of the screen follow, without active or inactive calls. The list favours compounds with an active or inconclusive main result. Potencies come from curve fits of mixed quality, noted in brackets.

This note sets out measurements from PubChem BioAssay AID493014 (National Center for Advancing Translational Sciences (NCATS), 2011).

This test can be described thus: qHTS Assay to Find Inhibitors of Chronic Active B-Cell Receptor Signaling. The note with it: ABC-DLBCL IkBa-CBG/CBR reporter, luminescence ratio (green luciferase fused to IkBa over red control in TMD8 lymphoma cells), 4 h. The gist of the method: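 Compounds up to 46 uM were incubated four hours with TMD8 cells whose green CBG68 luciferase is fused to IkappaBalpha; red CBR luminescence normalised the signal, and concentration-effect curves were fitted to fusion, red and ratio data.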

The mark [1] stands for this setting: measured here: CBR red luminescence, cell number.
Where [2] appears, read: measured here: IkBa-CBG green luminescence.

In the case of `c1cnc2c(c1)ccc1ncccc12`, the AC50 under setting [1] is 2.82 µM [falling, full curve].
The same measure, in the same setting: the same measure for `O=C1Nc2ccccc2/C1=C/c1cnc[nH]1`: 7.94 µM [rising, partial curve, poor fit].
On to `Cc1ccc(CN2CCSc3ccc(C(=O)N4CCC5(CC4)OCCO5)cc32)cc1`, for which the half-maximal activity concentration (AC50) under setting [1] was 12.6 µM [falling, single point].
On to `CCCCn1c(O)c(C(C)=Nc2cccc(C(=O)O)c2)c(=O)[nH]c1=O`, for which the AC50 under setting [1] was 2.31 µM [rising, partial curve, poor fit].
Regarding `Cc1cc(C)c(C(=O)CN2CCOCC2)c(C)c1`, under setting [2], the AC50 is 16.4 µM [falling, partial curve].
Consider `Cc1nc2ccccn2c1P(=S)(N1CCCCC1)N1CCCCC1`, for which, under setting [1], the AC50 is 0.58 µM [rising, full curve, poor fit].
The same measure, in the same setting: the same measure for `C/C(=N\Nc1ccccc1)c1c(O)[nH]c(=O)[nH]c1=O`: 14.1 µM [rising, single point]; for `CC1CC2(O)c3nonc3CCC2N1O` (stereo not drawn): 29.1 µM [rising, single point]; for `COc1ccccc1-n1c(-c2ccccc2Br)nc2ccccc2c1=O`: 22.4 µM [falling, partial curve, poor fit].
For `Cn1cc(C(=O)OCC(=O)N2CCCC2)c2ccccc21`, the AC50 under setting [1] is 11.6 µM [falling, partial curve].
Same read-out and setting: then `CN(C(=O)Oc1ccc([N+](=O)[O-])cc1)c1ccccc1`, with 6.51 µM [rising, partial curve, poor fit]; and `CC1CCN(S(=O)(=O)c2ccc(C(=O)Nc3nnc(-c4ccncc4)o3)cc2)CC1`, with 22.4 µM [falling, partial curve, poor fit]; and `O=C(NCCc1cccs1)c1ccc(Cl)c(Cl)c1`, with 11.2 µM [falling, partial curve].
Turning to `NC(N)=Nc1ccc2[nH]c3c(c2c1)C[C@@]1(O)[C@H]2Cc4ccc(O)c5c4[C@@]1(CCN2CC1CC1)[C@H]3O5`, the AC50 under setting [2] is 18.4 µM [falling, single point].
As to `CCn1cc(C=C2C(=O)NC(=O)NC2=O)c2ccccc21`, the AC50 under setting [1] is 6.31 µM [rising, partial curve, poor fit].
On the same count and under the same terms, then `CCOP(=O)(c1ccc(N(C)C)cc1)C(O)c1c(Cl)cccc1Cl` (stereo not drawn), with 3.66 µM [falling, partial curve].
For `COc1ccc2oc3c(c2c1)NC(=O)CN=C3c1ccccc1`, the AC50 under setting [1] is 0.447 µM [rising, partial curve, poor fit].
Same read-out and setting: then `Cc1ccc2c(c1)C1CN(C)CCC1N2C(=O)Nc1cccc(C(F)(F)F)c1` (stereo not drawn), with 6.51 µM [falling, single point]; and `COC(=O)C1=C(c2ccc(-c3ccccc3)c(F)c2)C[C@@H]2CC[C@H]1N2C(=O)NCCOc1ccc(OC)cc1`, with 10.3 µM [falling, partial curve].
For `COC(=O)C1=C(c2ccc(Cl)c(C(F)(F)F)c2)C[C@@H]2CC[C@H]1N2C(=O)NCCOc1ccccc1Cl`, the AC50 under setting [1] was 11.6 µM [falling, partial curve, poor fit].
Same read-out and setting: the same measure for `Nc1ccccc1C(=O)OCc1ccc([N+](=O)[O-])cc1`: 6.31 µM [rising, partial curve, poor fit]; for `Cc1c(C(c2ccc(O)cc2)c2c(O)c3ccccc3oc2=O)c(=O)n(-c2ccccc2)n1C` (stereo not drawn): 9.2 µM [falling, partial curve].
Same read-out and setting: then `COc1cccc(CN2CC=C(c3ccc(F)cc3)CC2)c1`, with 12.6 µM [rising, partial curve, poor fit]; and `N[C@@H](Cc1c[nH]c2ccccc12)c1nnc(SCc2ccccc2F)o1`, with 6.31 µM [rising, single point].
In the case of `Cn1c(O)c(C(=NCCc2c[nH]c3ccccc23)c2ccccc2)c(=O)n(C)c1=O`, the AC50 under setting [1] is 22.4 µM [falling, single point].
Still for that read-out and setting: the same measure for `CCOC(=O)C1(CCc2ccccc2)CCN(Cc2cccc3cnccc23)CC1`: 11.2 µM [rising, partial curve, poor fit].
`CCn1nc(-c2ccccc2)nc2c(=O)n(C)c(=O)nc1-2`: the AC50 by setting is: under setting [1], 5.8 µM [falling, full curve]; under setting [2], 4.61 µM [rising, partial curve, poor fit].
On to `Cc1ccc(C(=O)NNC(=O)c2cc3ccccc3cc2O)cc1`, for which the AC50 under setting [1] is 11.2 µM [falling, partial curve].
On the same count and under the same terms, the same measure for `Cc1ccc(NP(=O)(Oc2ccccc2F)Oc2ccccc2F)cc1C`: 29.1 µM [falling, single point].
As for `Cc1cc(C(C#N)c2ccc(Cl)cc2)c(Cl)cc1NC(=O)c1cc(I)cc(I)c1O` (stereo not drawn), the AC50 under setting [1] was 4.11 µM [falling, partial curve, poor fit].
As to `CC(C)(C)c1cc(C=C(C#N)C#N)cc(C(C)(C)C)c1O`, the AC50 under setting [1] is 3.26 µM [falling, full curve].
With `COc1ccc(-[n+]2c(-c3ccccc3)cc(-c3ccccc3)cc2-c2ccccc2)cc1`, the AC50 by setting is: under setting [1], 11.6 µM [falling, partial curve]; under setting [2], 23.1 µM [rising, partial curve, poor fit].
Take `CCOP(=O)(OCC)c1cc(CC)ccc1O`: the half-maximal activity concentration (AC50) under setting [1] is 14.1 µM [rising, partial curve, poor fit].
On to `O=C(NCC1CCCCC1)c1cc2ccccc2cc1O`, for which, under setting [1], the AC50 is 10 µM [falling, single point].
Turning to `Cc1nc(-c2ccc(Cl)cc2)sc1C(=O)O`, under setting [1], the AC50 was 3.16 µM [falling, full curve].
Same read-out and setting: then `COc1cccc(C2(O)CCSCC2CN(C)C)c1` (stereo not drawn), with 2.59 µM [rising, single point].
`C[C@@H]1C[C@@H]([C@H](O)CC2CC(=O)NC(=O)C2)C(=O)[C@@H](C)C1`: the AC50 is, setting by setting: under setting [1], 1.16 µM [falling, full curve]; under setting [2], 8.2 µM [rising, partial curve, poor fit].
For the compound `Cc1ccc(-n2c(/C=C/c3ccccc3)nc3ccccc3c2=O)cc1C`, the concentration at half-maximal activity (AC50) under setting [1] was 1.26 µM [rising, full curve].
In the case of `CCCCN1C(=O)NC(=O)C2(Cc3c(nc4c(C)cccn4c3=O)N3CCc4ccccc4C32)C1=O` (stereo not drawn), the AC50 under setting [1] is 0.82 µM [falling, full curve, poor fit] and the AC50 under setting [2] is 0.82 µM [rising, full curve, poor fit].
